Experimental data: PubChem BioAssay AID743121 (NCATS, 2013)
The deposit covers about 26,000 reagents; shown is a random part of them. 167 of all reagents (0.63%) count as active. 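Calls are per gene from RSA p-values that are not deposited; an individual active-marked siRNA can sensitise only weakly.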 Reagents against one gene are numbered here. Further read-outs or replicates are left out here.

Purpose: 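Genes whose silencing strengthens cell killing by camptothecin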 (primary screen)
System: MDA-MB-231 cells, a human breast cancer line
Knock-down reagent: single siRNA against human genes, 20 nM siRNA (0.8 pmol per well)
Timing: 120 h (drug added 48 h after transfection, read 72 h later)
Treatment: camptothecin 20 nM (about EC30) for 72 h; vehicle 0.1% DMSO in parallel plates
Measured: 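CellTiter-Glo ATP signal, scaled to control siRNA as percent viability; sensitisation given as log2 of untreated divided by camptothecin-treated viability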
Direction: log2 vehicle/camptothecin viability: higher = stronger sensitisation to camptothecin
Rule for the call: 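Active genes have an RSA gene-level p-value below 0.001, computed from the ratios of their separate siRNAs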

gene symbol | reagent no. | log2 vehicle/camptothecin viability | Outcome
PDIA3 (protein disulfide isomerase family A member 3) | 1 | -0.623 | inactive
PDIA3 (protein disulfide isomerase family A member 3) | 2 | -0.266 | inactive
PDIA3 (protein disulfide isomerase family A member 3) | 3 | -0.229 | inactive
PDIA3 (protein disulfide isomerase family A member 3) | 4 | 0.146 | inactive
CALCRL (calcitonin receptor like receptor) | 1 | -0.341 | inactive
CALCRL (calcitonin receptor like receptor) | 2 | -0.312 | inactive
CALCRL (calcitonin receptor like receptor) | 3 | -0.152 | inactive
CALCRL (calcitonin receptor like receptor) | 4 | -0.231 | inactive
TASL (TLR adaptor interacting with endolysosomal SLC15A4) | 1 | -0.219 | inactive
TASL (TLR adaptor interacting with endolysosomal SLC15A4) | 2 | 0.0776 | inactive
TASL (TLR adaptor interacting with endolysosomal SLC15A4) | 3 | -0.367 | inactive
DUOX2 (dual oxidase 2) | 1 | 0.0213 | inactive
DUOX2 (dual oxidase 2) | 2 | -0.0388 | inactive
DUOX2 (dual oxidase 2) | 3 | -0.277 | inactive
DUOX2 (dual oxidase 2) | 4 | -0.134 | inactive
LIPM (lipase family member M) | 1 | 0.634 | inactive
LIPM (lipase family member M) | 2 | -0.277 | inactive
LIPM (lipase family member M) | 3 | -0.327 | inactive
LIPM (lipase family member M) | 4 | -0.0888 | inactive
C9 (complement C9) | 1 | -0.692 | inactive
C9 (complement C9) | 2 | -0.175 | inactive
C9 (complement C9) | 3 | -0.0248 | inactive
C9 (complement C9) | 4 | -0.631 | inactive
GLRA3 (glycine receptor alpha 3) | 1 | -0.149 | inactive
GLRA3 (glycine receptor alpha 3) | 2 | -0.285 | inactive
GLRA3 (glycine receptor alpha 3) | 3 | 0.253 | inactive
ADAM19 (ADAM metallopeptidase domain 19) | 1 | 0.704 | active
ADAM19 (ADAM metallopeptidase domain 19) | 2 | 0.804 | active
ADAM19 (ADAM metallopeptidase domain 19) | 3 | 0.637 | active
ADAM19 (ADAM metallopeptidase domain 19) | 4 | 0.109 | active

No new results follow: 4 of the entries above.
gene symbol | reagent no. | log2 vehicle/camptothecin viability | Outcome
LIPM (lipase family member M) | 4 | -0.0888 | inactive
C9 (complement C9) | 1 | -0.692 | inactive
C9 (complement C9) | 2 | -0.175 | inactive
C9 (complement C9) | 3 | -0.0248 | inactive
